# Laboratory results published in doi:10.1101/2022.08.31.505729.
# The chains behind the UniProt entries cited, without tags or fusion partners. Where a name states a change or a piece, a line headed by the entry shows the natural chain unless it says otherwise.
# UniProt Q8RX71: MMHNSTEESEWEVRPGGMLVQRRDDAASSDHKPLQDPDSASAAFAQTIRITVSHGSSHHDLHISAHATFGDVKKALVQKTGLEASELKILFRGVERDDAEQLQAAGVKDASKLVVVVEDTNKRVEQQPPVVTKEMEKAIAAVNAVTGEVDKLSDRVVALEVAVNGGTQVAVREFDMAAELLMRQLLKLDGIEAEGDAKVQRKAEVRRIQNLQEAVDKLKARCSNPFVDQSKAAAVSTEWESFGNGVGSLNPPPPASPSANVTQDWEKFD
# UniProt Q8LF20: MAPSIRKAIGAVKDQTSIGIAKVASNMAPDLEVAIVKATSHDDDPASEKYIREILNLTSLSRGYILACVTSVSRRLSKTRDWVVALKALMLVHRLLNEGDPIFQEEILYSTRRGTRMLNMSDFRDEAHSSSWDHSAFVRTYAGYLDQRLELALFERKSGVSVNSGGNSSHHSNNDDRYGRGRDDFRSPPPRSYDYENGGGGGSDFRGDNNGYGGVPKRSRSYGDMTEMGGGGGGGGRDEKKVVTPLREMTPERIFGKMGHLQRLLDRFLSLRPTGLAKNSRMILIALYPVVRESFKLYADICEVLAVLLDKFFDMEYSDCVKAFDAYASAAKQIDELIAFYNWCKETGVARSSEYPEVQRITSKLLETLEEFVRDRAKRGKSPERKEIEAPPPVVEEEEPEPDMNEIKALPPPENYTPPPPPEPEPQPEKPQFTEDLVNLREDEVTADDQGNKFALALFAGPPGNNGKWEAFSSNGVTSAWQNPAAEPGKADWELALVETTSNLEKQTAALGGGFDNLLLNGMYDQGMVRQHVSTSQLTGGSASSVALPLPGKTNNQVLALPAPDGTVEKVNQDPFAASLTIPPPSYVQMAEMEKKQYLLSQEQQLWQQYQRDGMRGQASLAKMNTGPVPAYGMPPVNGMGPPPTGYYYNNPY
# UniProt Q42374: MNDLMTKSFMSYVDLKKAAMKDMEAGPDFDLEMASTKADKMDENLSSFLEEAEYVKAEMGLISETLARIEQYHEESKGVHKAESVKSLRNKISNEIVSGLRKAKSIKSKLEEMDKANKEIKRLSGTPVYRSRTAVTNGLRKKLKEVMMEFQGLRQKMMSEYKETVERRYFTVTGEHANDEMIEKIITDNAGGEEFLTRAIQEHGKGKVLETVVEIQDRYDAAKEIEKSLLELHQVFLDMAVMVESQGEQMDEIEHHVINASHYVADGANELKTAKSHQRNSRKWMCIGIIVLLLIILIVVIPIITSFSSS
# UniProt Q8LBH2: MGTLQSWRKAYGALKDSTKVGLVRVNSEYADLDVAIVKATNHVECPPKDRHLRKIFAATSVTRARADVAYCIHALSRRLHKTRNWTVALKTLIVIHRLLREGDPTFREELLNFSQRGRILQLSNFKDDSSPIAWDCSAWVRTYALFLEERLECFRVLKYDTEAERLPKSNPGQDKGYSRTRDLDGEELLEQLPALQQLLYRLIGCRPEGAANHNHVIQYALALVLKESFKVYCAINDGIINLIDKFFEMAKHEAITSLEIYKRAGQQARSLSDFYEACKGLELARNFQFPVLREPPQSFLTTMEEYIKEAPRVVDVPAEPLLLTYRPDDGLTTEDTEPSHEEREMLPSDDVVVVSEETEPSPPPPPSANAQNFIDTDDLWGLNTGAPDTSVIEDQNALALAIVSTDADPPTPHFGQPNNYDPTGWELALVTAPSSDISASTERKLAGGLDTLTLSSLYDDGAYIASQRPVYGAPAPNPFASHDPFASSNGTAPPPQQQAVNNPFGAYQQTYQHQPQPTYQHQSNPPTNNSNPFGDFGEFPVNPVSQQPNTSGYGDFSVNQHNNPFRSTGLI
# UniProt Q8S9J8: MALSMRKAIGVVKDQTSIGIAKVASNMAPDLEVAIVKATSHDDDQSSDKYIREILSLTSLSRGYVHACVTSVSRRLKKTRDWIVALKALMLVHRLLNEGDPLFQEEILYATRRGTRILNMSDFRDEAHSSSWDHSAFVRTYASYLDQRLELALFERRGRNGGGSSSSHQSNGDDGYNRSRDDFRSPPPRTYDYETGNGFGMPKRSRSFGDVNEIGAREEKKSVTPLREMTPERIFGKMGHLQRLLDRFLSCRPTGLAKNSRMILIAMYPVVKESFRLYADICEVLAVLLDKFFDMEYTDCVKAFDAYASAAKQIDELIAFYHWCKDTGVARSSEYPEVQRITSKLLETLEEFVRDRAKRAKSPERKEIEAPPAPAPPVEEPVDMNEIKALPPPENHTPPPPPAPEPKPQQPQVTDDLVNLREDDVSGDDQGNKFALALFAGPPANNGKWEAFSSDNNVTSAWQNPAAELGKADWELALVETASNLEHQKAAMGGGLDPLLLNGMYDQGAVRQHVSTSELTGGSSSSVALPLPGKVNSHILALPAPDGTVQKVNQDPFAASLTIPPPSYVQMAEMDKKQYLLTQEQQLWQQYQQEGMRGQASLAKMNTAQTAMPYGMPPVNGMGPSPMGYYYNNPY
# T1: AP2M fused to TurboID (Arabidopsis thaliana) (UniProt O23140)
# T1 sequence: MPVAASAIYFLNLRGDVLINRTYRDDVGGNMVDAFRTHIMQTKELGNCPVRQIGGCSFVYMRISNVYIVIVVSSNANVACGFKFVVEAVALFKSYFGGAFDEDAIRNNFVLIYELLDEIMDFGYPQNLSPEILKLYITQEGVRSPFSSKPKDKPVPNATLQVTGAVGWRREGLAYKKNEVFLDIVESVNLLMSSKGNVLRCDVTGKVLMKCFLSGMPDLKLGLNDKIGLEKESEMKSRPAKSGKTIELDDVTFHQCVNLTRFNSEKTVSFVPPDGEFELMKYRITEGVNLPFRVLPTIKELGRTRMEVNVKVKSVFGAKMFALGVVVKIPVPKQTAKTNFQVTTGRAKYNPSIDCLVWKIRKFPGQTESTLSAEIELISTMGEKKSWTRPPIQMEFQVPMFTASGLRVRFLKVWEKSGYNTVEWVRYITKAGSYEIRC
# T2: AP3B (Arabidopsis thaliana) (UniProt Q9M2T1)
# T2 sequence: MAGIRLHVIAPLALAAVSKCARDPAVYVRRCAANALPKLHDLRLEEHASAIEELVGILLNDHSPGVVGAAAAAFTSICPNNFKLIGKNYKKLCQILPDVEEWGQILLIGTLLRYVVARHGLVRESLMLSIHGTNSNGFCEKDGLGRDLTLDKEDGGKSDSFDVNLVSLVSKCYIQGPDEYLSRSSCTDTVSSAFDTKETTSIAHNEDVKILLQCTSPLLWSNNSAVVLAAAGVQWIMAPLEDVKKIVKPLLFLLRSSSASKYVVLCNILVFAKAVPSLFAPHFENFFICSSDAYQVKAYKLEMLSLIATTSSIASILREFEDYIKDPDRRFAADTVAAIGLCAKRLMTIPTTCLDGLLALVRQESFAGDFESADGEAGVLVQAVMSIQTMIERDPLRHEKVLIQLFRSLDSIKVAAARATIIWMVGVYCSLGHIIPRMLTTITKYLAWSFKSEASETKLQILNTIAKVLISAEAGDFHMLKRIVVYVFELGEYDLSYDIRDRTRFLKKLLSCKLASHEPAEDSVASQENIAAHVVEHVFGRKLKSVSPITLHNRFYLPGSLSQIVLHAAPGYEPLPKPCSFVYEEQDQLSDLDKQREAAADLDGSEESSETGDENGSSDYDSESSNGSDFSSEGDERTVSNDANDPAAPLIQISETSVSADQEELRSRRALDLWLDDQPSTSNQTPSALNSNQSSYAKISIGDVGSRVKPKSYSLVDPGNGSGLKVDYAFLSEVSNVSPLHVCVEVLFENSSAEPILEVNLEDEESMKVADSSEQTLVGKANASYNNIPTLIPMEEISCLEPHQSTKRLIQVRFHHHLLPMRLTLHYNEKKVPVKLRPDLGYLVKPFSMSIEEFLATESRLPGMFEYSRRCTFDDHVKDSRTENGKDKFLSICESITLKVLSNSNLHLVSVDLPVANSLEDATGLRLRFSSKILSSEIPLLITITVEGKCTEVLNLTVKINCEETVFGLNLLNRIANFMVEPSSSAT
# Key:
# [1] = biological target: TML fused to TurboID (Arabidopsis thaliana) (UniProt Q9FKM4); assay: proximity labelling
# [2] = biological target: T1, AP2M fused to TurboID (Arabidopsis thaliana); assay: proximity labelling
# [3] = biological target: BCL-2-ASSOCIATED ATHANOGENE4 (BAG4) (Arabidopsis thaliana) (UniProt Q8RX71); assay: affinity purification with mass spectrometry
# [4] = biological target: ECA4 (Arabidopsis thaliana) (UniProt Q8LF20); assay: affinity purification with mass spectrometry
# [5] = biological target: TML fused to TurboID (Arabidopsis thaliana) (UniProt Q9FKM4); assay: proximity labelling; remark: listed apart in the source
# [6] = biological target: BCL-2-ASSOCIATED ATHANOGENE4 (BAG4) (Arabidopsis thaliana) (UniProt Q8RX71); assay: affinity purification with mass spectrometry; remark: listed apart in the source
# [7] = biological target: T1, AP2M fused to TurboID (Arabidopsis thaliana); assay: proximity labelling; remark: listed apart in the source
# [8] = biological target: T2, AP3B (Arabidopsis thaliana); assay: affinity purification with mass spectrometry
molecule,measurement,setting,value
BCL-2-ASSOCIATED ATHANOGENE4 (BAG4) (from UniProt Q8RX71 1-269),binding,[1],binds
"KNOLLE (cytokinesis-specific syntaxin), prey of PL-MS (from UniProt Q42374)",binding,[2],binds
ECA1 (from UniProt Q8LBH2),binding,[3],binds
CAP1 (from UniProt Q8S9J8),binding,[3],binds
same,binding,[4],binds
"clathrin light chain subunit 2 (CLC2) (protein, UniProt O04209 1-258) MSAFEDDSFVILNDDASESVPVSGSFDATDSFSAFDGSLQVEDSVDDVFAAPSSDYGAYSNGDGIFGSNGDHDGPILPPPSEMESDEGFALREWRRQNAIQLEEKEKREKELLKQIIEEADQYKEEFHKKIEVTCENNKAANREKEKLYLENQEKFYAESSKNYWKAIAELVPKEVPTIEKRRGKKEQQDPKKPTVSVIQGPKPGKPTDLTRMRQILVKLKHNPPSHLKLTSQPPSEEAAAPPKNVPETKPTEAVTAA",binding,[5],binds
same,binding,[6],binds
"FORMIN-LIKE6 (FH6), prey of PL-MS (protein, UniProt Q9FJX6 25-899) EAHRRILHQPLFPESSTPPPPDFQSTPSPPLPDTPDQPFFPENPSTPQQTLFPPPPPPVSADVNGGLPIPTATTQSAKPGKKVAIVISVGIVTLGMLSALAFFLYRHKAKHASDTQKLVTGGGDGGGSRRFQEDSGPPTTTSSTFLYMGTVEPTRVSASESNGGTNGPVNSSPYRKLNSAKRSERYRPSPELQPLPPLAKPPQPSDNSPSALSPSSSSSGEECRDTAFYTPHGSAISSDDGYYTAFPRSANGSLPHSKRTSPRSKFGSAPTTAASRSPEMKHVIIPSIKQKLPPPVQPPPLRGLESDEQELPYSQNKPKFSQPPPPPNRAAFQAITQEKSPVPPPRRSPPPLQTPPPPPPPPPLAPPPPPQKRPRDFQMLRKVTNSEATTNSTTSPSRKQAFKTPSPKTKAVEEVNSVSAGSLEKSGDGDTDPSKPKLKPLHWDKVRASSDRATVWDQLKSSSFQLNEDRMEHLFGCNSGSSAPKEPVRRSVIPLAENENRVLDPKKSQNIAILLRALNVTREEVSEALTDGNPESLGAELLETLVKMAPTKEEEIKLREYSGDVSKLGTAERFLKTILDIPFAFKRVEAMLYRANFDAEVKYLRNSFQTLEEASLELKASRLFLKLLEAVLMTGNRMNVGTNRGDAIAFKLDTLLKLVDIKGVDGKTTLLHFVVQEITRSEGTTTTKDETILHGNNDGFRKQGLQVVAGLSRDLVNVKKSAGMDFDVLSSYVTKLEMGLDKLRSFLKTETTQGRFFDSMKTFLKEAEEEIRKIKGGERKALSMVKEVTEYFHGNAAREEAHPLRIFMVVRDFLGVLDNVCKEVKTMQEMSTSMGSASARSFRISATASLPVLHRYKARQDDTSSDSEHSSNSST",binding,[7],binds
"CLC1 (protein, UniProt Q9SKU1 1-338) MATFDDGDFPAQTHSPSEHEDFGGYDNFSEAQQPPTQHQSGGFSSFNGDPASPNGYGFGASSPNHDFSSPFESSVNDANGNGGGSGGDAIFASDGPILPDPNEMREEGFQRREWRRLNTIHLEEKEKKEKEMRNQIITEAEDFKKAFYEKRDKTIETNKTDNREKEKLYWANQEKFHKEVDKHYWKAIAELIPREVPNIEKKRGKKDPDKKPSVNVIQGPKPGKPTDLGRMRQIFLKLKTNPPPHMMPPPPPAKDAKDGKDAKDGKDAKTGKDGKDAKGGKDAKDLKDGKPADPKVTEEKRPSPAKDASVETAKPDAAASGEGEKPVAVTEAEGTKAE",binding,[6],binds
"AP4M (protein, UniProt Q9SB50 1-451) MMISQFFVLSQRGDNIVFRDYRAEVPKGSTETFFRKVKFWKEDGNAEAPPIFNVDGVNYFHVKVVGLYFVATTRVNVSPSLVLELLQRIARVIKDYLGVLNEDSFRKNFVLVYELLDEVIDFGYVQTTSTEVLKSYIFNEPIVVSPARLQPIDPAAIFTQGAKRMPGTAVTKSVVANDPGGRRREEIFVDIIEKISVTFSSSGYILTSEIDGTIQMKSYLSGNPEIRLALNEDLNIGRGGRSVYDYRSSSGSGVILDDCNFHESVRLDSFDSDRTLSLVPPDGEFPVMNYRMTQEFKPPFHVNTLIEEAGRLKAEVIIKIRAEFPSDIIANTITVQMPLPNYTSRASFELEPGAAGQRTDFKESNKMLEWNLKKIVGGGEHTLRAKLTFSQEFHGNITKEAGPVSMTFTIPMYNVSKLQVKYLQIAKKSSSYNPYRWVRYVTQANSYVARI",binding,[8],binds

# Read-outs that look alike come from different tables or passages of the source. Results are given in words; binding and its absence hold for the method and conditions named. Binding seen in cells or lysates may run through a third protein. A yes stands for co-enrichment or nearness to the bait. Other partners may have been found. For some of these results: Tags and fused reporters may be left off the sequences shown.
